In patent US5372933A, “Polypeptides that mimic receptor-induced binding sites, and methods of using same” (The Scripps Research Institute, priority 1991, dated 1994):
Entries after “also recorded” stand apart in the source; their conditions may differ. At least one peptide structure holds a part that was inferred or is arguable (an end, a ring closure or a residue). Residues, ends and D or L forms follow the SMILES beside them.

Columns and labels:
[1] = system: 2G5; test: Affinity chromatography on immobilized 2G5; assay type: binding, mouse; details: 1 mg peptide applied; estimated from absorbance at 280 nm
[2] = system: 2G5 MAb; test: ELISA, reactivity of 2G5 MAb with immobilized synthetic peptides; assay type: binding, mouse
[3] = system: 2G5; test: Inhibition of 2G5 binding to immobilized D100 by synthetic peptides; parameters: species or system mouse; details: affinity-purified D100 coated plates
[4] = system: albumin; test: Albumin-Sepharose column control; assay type: binding

## CSCC[C@H](NC(=O)[C@H](CO)NC(=O)[C@H](Cc1ccc(O)cc1)NC(=O)[C@H](Cc1c[nH]c2ccccc12)NC(=O)[C@H](CCCNC(=N)N)NC(=O)[C@@H](NC(=O)[C@@H](N)CCCCN)[C@@H](C)O)C(=O)N[C@@H](CCCCN)C(=O)N[C@@H](CCCCN)C(=O)N[C@H](C(=O)N[C@H](C(=O)N[C@@H](CCSC)C(=O)N[C@@H](CCCCN)C(=O)O)[C@@H](C)O)[C@@H](C)O [P4, KTRWYSMKKTTMK] (H-KTRWYSMKKTTMK-OH)
[1]
  peptide bound to the 2G5 column: 44 µmol
[2]; Table 6, peptides coated at 10 μg/ml, 2G5 50 μg/ml
  Absorbance at 405 nm: 0.624
[2]; Table 7, homologous peptides, conditions as Table 6
  Absorbance at 405 nm: 0.660
[2]; immobilized peptide
  reactivity of peptide with 2G5, result in words: reacted strongly; also recorded: bound to 2G5
[2]; peptide subjected to reduction and alkylation, immobilized onto microtiter plates
  reactivity with 2G5 of reduced and alkylated versus untreated peptide: the same
[3]
  effect on 2G5 binding to immobilized D100, result in words: inhibited antibody binding
[4]
  peptide bound to albumin-Sepharose column, result in words: no peptide was bound
